Some of the results follow. Repeats are few or missing, and single values can be far off.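 Cells were imaged in 1,536-well plates, and nuclei stained with an antibody against cleaved PARP were counted against all DNA-stained nuclei to give the apoptosis fraction. Screening doses were chosen to leave most cells alive, and resting and induced cleaved-PARP levels differ strongly between cell lines.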
What was measured:
Assay in all cases: cleaved PARP positive nuclei fraction relative to DMSO control; melanoma cells; higher = more apoptosis
Details in all cases: library dose: low library concentration; 72 h
WM115 = test system: WM115
WM1716 = test system: WM1716
WM1745 = test system: WM1745
WM3526 = test system: WM3526
WM3619 = test system: WM3619
WM451Lu = test system: WM451Lu

SMILES	cleaved PARP positive nuclei fraction (WM115)	cleaved PARP positive nuclei fraction (WM1716)	cleaved PARP positive nuclei fraction (WM1745)	cleaved PARP positive nuclei fraction (WM3526)	cleaved PARP positive nuclei fraction (WM3619)	cleaved PARP positive nuclei fraction (WM451Lu)
Cc1ccc(Nc2nccc(N(C)c3ccc4c(C)n(C)nc4c3)n2)cc1S(N)(=O)=O [Pazopanib] + O=c1cc(-c2cccc3c2Sc2ccccc2S3)oc(N2CCOCC2)c1 [KU55933] (first compound 0.4 µM, partner dose 1 µM)	250%	138%	86.6%	281%	90.1%	41%
N#CC[C@H](C1CCCC1)n1cc(-c2ncnc3[nH]ccc23)cn1 [ruxolitinib] + CN(NC(=O)CC(=O)NN(C)C(=S)c1ccccc1)C(=S)c1ccccc1 [STA4783] (first compound 1 µM, partner dose 0.006 µM)	41.1%	100%	152%	44.7%	129%	53.9%
Cc1ccc(Nc2nccc(N(C)c3ccc4c(C)n(C)nc4c3)n2)cc1S(N)(=O)=O [Pazopanib] + CN(c1ncccc1CNc1nc(Nc2ccc3c(c2)CC(=O)N3)ncc1C(F)(F)F)S(C)(=O)=O [PF562271] (first compound 0.4 µM, partner dose 0.08 µM)	134%	186%	108%	74.3%	101%	213%
Cc1cn(-c2cc(NC(=O)c3ccc(C)c(Nc4nccc(-c5cccnc5)n4)c3)cc(C(F)(F)F)c2)cn1 [nilotinib] + OCc1c[nH]c2ccccc12 [Indole-3-carbinol] (first compound 0.2 µM, partner dose 0.8 µM)	93.7%	913%	110%	73.6%	95.6%	39.2%
CC[C@]1(O)C[C@H]2CN(CCc3c([nH]c4ccccc34)[C@@](C(=O)OC)(c3cc4c(cc3OC)N(C=O)[C@H]3[C@@](O)(C(=O)OC)[C@H](OC(C)=O)[C@]5(CC)C=CCN6CC[C@]43[C@@H]65)C2)C1 [vincristine] + COc1ccc2c(c1)CCC1C2CCC2(C)C(NCCCCCCN3C(=O)C=CC3=O)CCC12 [U73122] (first compound 0.0001 µM, partner dose 0.4 µM)	423%	141%	89.2%	54.9%	110%	77.2%
N#CC[C@H](C1CCCC1)n1cc(-c2ncnc3[nH]ccc23)cn1 [ruxolitinib] + Cc1cc(N2CCOCC2)cc2[nH]c(-c3c(NC[C@@H](O)c4cccc(Cl)c4)cc[nH]c3=O)nc12 [BMS536924] (first compound 1 µM, partner dose 0.2 µM)	87.8%	180%	127%	110%	111%	142%
O=C(/C=C/c1cccnc1)NCCCCC1CCN(C(=O)c2ccccc2)CC1 + Clc1ccc(Nc2nnc(Cc3ccncc3)c3ccccc23)cc1 [vatalanib] (first compound 0.01 µM, partner dose 2 µM)	17.8%	141%	95.2%	76.8%	113%	82.2%
COc1cc([C@@H]2c3cc4c(cc3[C@@H](O[C@@H]3O[C@@H]5CO[C@@H](C)O[C@H]5[C@H](O)[C@H]3O)[C@H]3COC(=O)[C@H]23)OCO4)cc(OC)c1O [etoposide] + COc1ccc(Cl)c(Nc2nc3ccccc3nc2NS(=O)(=O)c2cccc(NC(=O)C(C)(C)N)c2)c1 [XL147] (first compound 0.02 µM, partner dose 0.8 µM)	71.5%	135%	109%	101%	94.5%	28.7%
O=C(/C=C/c1cccnc1)NCCCCC1CCN(C(=O)c2ccccc2)CC1 + CC1(C)NC(=O)N(c2ccc([N+](=O)[O-])c(C(F)(F)F)c2)C1=O [nilutamide] (first compound 0.01 µM, partner dose 1 µM)	97.5%	73.4%	97.9%	83.6%	100%	22.8%
O=c1[nH]nc(Sc2ncc([N+](=O)[O-])s2)n1-c1ccc2c(c1)OCCO2 + CS(=O)(=O)CCNCc1ccc(-c2ccc3ncnc(Nc4ccc(OCc5cccc(F)c5)c(Cl)c4)c3c2)o1 [lapatinib] (first compound 0.2 µM, partner dose 0.8 µM)	125%	173%	92.8%	162%	88.3%	60.1%
O=c1[nH]nc(Sc2ncc([N+](=O)[O-])s2)n1-c1ccc2c(c1)OCCO2 + O=C(CCCCCCC(=O)Nc1ccccc1)NO [vorinostat] (first compound 0.2 µM, partner dose 0.08 µM)	62%	155%	83.6%	272%	89.5%	108%
O=c1[nH]nc(Sc2ncc([N+](=O)[O-])s2)n1-c1ccc2c(c1)OCCO2 + C[C@@H]1CCN(C(=O)CC#N)C[C@@H]1N(C)c1ncnc2[nH]ccc12 [CP690550] (first compound 0.2 µM, partner dose 1 µM)	50%	120%	103%	57.2%	93.1%	90.1%
O=C(/C=C/c1cccnc1)NCCCCC1CCN(C(=O)c2ccccc2)CC1 + O=C(O)[C@@H]1[O][Sb](=[O])([O][Sb]2(=[O])[O][C@H]([C@H](O)CO)[C@H](O)[C@H](C(=O)O)[O]2)[O][C@H]([C@H](O)CO)[C@@H]1O [stibogluconate] (first compound 0.01 µM, partner dose 2 µM)	103%	32%	80.5%	24.5%	83.8%	166%
Cc1ccc(Nc2nccc(N(C)c3ccc4c(C)n(C)nc4c3)n2)cc1S(N)(=O)=O [Pazopanib] + COc1ccc(COc2ccc(Cc3cnc(N)nc3N)cc2OC)cc1 [GW2580] (first compound 0.4 µM, partner dose 1 µM)	87.3%	124%	93.2%	192%	97.3%	103%
O=C(/C=C/c1cccnc1)NCCCCC1CCN(C(=O)c2ccccc2)CC1 + CCCS(=O)(=O)Nc1ccc(F)c(C(=O)c2c[nH]c3ncc(Cl)cc23)c1F [PLX4720] (first compound 0.01 µM, partner dose 0.08 µM)	66.6%	33%	475%	76.3%	109%	63.3%
CCCCCCCCCCCCCCCCCCOP(=O)([O-])OC1CC[N+](C)(C)CC1 [Perifosine] + Cc1cc(N2CCOCC2)cc2[nH]c(-c3c(NC[C@@H](O)c4cccc(Cl)c4)cc[nH]c3=O)nc12 [BMS536924] (first compound 0.4 µM, partner dose 0.2 µM)	28.2%	105%	141%	178%	104%	157%
O=c1[nH]nc(Sc2ncc([N+](=O)[O-])s2)n1-c1ccc2c(c1)OCCO2 + CCCCCCCCc1ccc(CCC(N)(CO)CO)cc1 [fingolimod] (first compound 0.2 µM, partner dose 2 µM)	62.9%	39.4%	96.7%	108%	94.3%	192%
O=C(Nc1cc(C(F)(F)F)cc(C(F)(F)F)c1)c1cc(Cl)ccc1O + O=C(O)c1ccc2c(c1)nc(Nc1cccc(Cl)c1)c1ccncc12 [CX4945] (first compound 0.016 µM, partner dose 0.4 µM)	115%	31.9%	82.5%	79%	186%	77.8%
N#CC[C@H](C1CCCC1)n1cc(-c2ncnc3[nH]ccc23)cn1 [ruxolitinib] + O=c1cc(-c2cccc3c2Sc2ccccc2S3)oc(N2CCOCC2)c1 [KU55933] (first compound 1 µM, partner dose 1 µM)	51.5%	93.3%	89.2%	62.8%	90.1%	126%
CC[C@]1(O)C[C@H]2CN(CCc3c([nH]c4ccccc34)[C@@](C(=O)OC)(c3cc4c(cc3OC)N(C=O)[C@H]3[C@@](O)(C(=O)OC)[C@H](OC(C)=O)[C@]5(CC)C=CCN6CC[C@]43[C@@H]65)C2)C1 [vincristine] + C=CCn1c(=O)c2cnc(Nc3ccc(N4CCN(C)CC4)cc3)nc2n1-c1cccc(C(C)(C)O)n1 [MK1775] (first compound 0.0001 µM, partner dose 0.02 µM)	1220%	348%	119%	78.2%	247%	96%
Cc1cc(Nc2cc(N3CCN(C)CC3)nc(Sc3ccc(NC(=O)C4CC4)cc3)n2)n[nH]1 [Tozasertib] + O=C(O)C(=O)Nc1sc2c(c1C(=O)O)CCNC2 [TCS401] (first compound 0.006 µM, partner dose 1.66667 µM)	127%	51.5%	98%	214%	91.1%	40.8%
N#CC[C@H](C1CCCC1)n1cc(-c2ncnc3[nH]ccc23)cn1 [ruxolitinib] + CN(C)S(=O)(=O)c1ccc2c(c1)/C(=C/c1cc3c([nH]1)CCCC3)C(=O)N2 [SU6656] (first compound 1 µM, partner dose 0.4 µM)	61.2%	130%	103%	177%	90.2%	87.6%
CCCCCCCCCCCCCCCCCCOP(=O)([O-])OC1CC[N+](C)(C)CC1 [Perifosine] + C[C@]1(O)C[C@@H](c2nc(-c3ccc4ccc(-c5ccccc5)nc4c3)c3c(N)nccn32)C1 [OSI906] (first compound 0.4 µM, partner dose 0.4 µM)	122%	80%	865%	51.9%	85.2%	97.6%

Look-ups from the list:
cleaved PARP positive nuclei fraction (WM451Lu), O=C(/C=C/c1cccnc1)NCCCCC1CCN(C(=O)c2ccccc2)CC1 + Clc1ccc(Nc2nnc(Cc3ccncc3)c3ccccc23)cc1 [vatalanib] (first compound 0.01 µM, partner dose 2 µM) reads 82.2%
cleaved PARP positive nuclei fraction (WM451Lu), O=c1[nH]nc(Sc2ncc([N+](=O)[O-])s2)n1-c1ccc2c(c1)OCCO2 + C[C@@H]1CCN(C(=O)CC#N)C[C@@H]1N(C)c1ncnc2[nH]ccc12 [CP690550] (first compound 0.2 µM, partner dose 1 µM) reads 90.1%
